The text below walks through data of paper PMC7295066.

The chains behind the UniProt entries cited, without tags or fusion partners.
UniProt Q9Y618: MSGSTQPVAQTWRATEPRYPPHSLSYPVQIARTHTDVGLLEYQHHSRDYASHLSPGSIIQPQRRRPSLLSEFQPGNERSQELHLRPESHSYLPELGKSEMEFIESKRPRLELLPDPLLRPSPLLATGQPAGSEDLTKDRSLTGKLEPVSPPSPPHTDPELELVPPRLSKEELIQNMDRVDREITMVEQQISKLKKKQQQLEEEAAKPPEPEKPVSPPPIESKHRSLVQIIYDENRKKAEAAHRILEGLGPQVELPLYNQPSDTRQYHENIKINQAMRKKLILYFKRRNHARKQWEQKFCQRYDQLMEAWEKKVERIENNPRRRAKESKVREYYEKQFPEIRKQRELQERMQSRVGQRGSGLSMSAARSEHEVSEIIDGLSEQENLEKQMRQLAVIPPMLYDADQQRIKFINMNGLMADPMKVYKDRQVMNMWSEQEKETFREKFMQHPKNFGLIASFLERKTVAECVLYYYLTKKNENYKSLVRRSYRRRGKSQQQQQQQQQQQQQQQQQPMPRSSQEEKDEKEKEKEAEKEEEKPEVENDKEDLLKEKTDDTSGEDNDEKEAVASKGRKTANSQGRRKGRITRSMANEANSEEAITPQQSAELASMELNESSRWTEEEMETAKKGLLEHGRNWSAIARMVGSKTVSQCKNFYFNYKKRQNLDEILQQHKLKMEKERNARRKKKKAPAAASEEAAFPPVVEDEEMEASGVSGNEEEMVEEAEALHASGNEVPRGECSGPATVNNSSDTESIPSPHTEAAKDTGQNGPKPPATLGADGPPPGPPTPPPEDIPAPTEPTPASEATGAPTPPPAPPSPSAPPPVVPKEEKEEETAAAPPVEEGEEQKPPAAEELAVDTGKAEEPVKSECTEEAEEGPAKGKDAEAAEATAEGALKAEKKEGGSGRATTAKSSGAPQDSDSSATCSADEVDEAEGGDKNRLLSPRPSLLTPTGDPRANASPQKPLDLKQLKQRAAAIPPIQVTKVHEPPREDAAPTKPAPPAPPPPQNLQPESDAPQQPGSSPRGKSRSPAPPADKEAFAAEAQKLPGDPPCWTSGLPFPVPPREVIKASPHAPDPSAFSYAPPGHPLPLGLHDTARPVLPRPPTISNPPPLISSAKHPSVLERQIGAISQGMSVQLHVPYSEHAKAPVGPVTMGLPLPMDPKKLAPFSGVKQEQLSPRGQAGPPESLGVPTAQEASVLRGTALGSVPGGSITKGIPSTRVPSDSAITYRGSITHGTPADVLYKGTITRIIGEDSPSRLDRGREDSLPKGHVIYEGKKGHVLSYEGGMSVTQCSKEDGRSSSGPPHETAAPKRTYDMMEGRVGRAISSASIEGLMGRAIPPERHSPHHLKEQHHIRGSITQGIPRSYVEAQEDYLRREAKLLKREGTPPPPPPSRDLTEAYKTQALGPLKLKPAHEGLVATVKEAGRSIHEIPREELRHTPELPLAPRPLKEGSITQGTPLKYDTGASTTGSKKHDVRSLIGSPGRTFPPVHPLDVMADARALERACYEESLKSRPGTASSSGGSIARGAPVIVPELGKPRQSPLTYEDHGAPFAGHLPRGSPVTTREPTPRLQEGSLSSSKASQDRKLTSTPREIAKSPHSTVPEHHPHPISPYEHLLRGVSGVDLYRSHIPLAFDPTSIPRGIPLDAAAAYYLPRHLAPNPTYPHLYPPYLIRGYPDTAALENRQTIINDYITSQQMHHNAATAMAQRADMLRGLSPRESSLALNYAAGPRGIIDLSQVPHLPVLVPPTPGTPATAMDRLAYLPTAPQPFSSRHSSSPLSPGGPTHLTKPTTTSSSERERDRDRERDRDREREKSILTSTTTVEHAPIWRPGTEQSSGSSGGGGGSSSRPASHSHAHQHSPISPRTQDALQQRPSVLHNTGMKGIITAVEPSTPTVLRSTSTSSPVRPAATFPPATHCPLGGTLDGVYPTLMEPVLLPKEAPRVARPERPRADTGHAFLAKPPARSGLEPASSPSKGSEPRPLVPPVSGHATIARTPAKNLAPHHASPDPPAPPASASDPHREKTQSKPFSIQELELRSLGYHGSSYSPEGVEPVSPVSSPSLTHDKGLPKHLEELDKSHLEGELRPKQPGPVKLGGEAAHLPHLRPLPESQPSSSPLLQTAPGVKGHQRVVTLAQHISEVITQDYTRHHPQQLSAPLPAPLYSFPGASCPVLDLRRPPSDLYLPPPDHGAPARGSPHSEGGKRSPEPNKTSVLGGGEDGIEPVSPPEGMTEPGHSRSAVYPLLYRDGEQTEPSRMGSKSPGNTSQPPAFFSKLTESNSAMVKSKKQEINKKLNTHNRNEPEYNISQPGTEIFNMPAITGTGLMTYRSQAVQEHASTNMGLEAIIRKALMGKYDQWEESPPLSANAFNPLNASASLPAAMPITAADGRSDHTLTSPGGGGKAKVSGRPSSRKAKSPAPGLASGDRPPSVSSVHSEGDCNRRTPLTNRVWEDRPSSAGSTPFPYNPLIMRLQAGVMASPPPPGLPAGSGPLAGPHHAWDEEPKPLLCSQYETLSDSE
UniProt P19793: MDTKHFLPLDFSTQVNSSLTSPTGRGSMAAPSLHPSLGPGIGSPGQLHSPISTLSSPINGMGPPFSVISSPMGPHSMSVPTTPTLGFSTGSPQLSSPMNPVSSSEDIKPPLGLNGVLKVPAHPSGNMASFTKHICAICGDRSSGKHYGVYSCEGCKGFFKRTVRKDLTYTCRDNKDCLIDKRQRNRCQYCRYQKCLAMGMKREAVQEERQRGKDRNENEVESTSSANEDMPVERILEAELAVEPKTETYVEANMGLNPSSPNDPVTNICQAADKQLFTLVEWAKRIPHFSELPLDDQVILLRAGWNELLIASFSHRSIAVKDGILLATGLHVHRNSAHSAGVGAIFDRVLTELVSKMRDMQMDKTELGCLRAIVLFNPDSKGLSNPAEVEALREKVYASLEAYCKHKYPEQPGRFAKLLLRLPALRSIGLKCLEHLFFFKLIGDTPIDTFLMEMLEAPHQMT

No constants are given. Whether binding was seen depends on the method and setting. Binding seen in cells or lysates may run through a third protein. Some binding calls cover weakened binding; strength is not graded here.

Test [1] addresses nuclear receptor corepressor 2 (NCOR2) (human (endogenous in MDA-MB-231)) (UniProt Q9Y618). The experiment in a line: condition: only cells treated with emodin for 48 h (10 µM in the legend); co-IP; as a1, cells treated with emodin for 48 h before lysis (10 µM in the legend; increased dosages in the text).
Test [2] has the same target. The experiment in a line: co-IP; endogenous proteins in MDA-MB-231 lysates (20 mM Tris-HCl pH 7.5, 150 mM NaCl, 2 mM EDTA, 1% Triton X100); anti-NCOR2, anti-RARα or anti-RXRα antibody with protein-G-agarose overnight at 4 °C; western blot; cells treated with DMSO or emodin for 48 h. A general note: In western blotting, separated proteins are transferred to a membrane and probed.

RXRα (from UniProt P19793 1-462): the binding entry in test [1] is listed as “no binding”; in test [2], “binds”.
